Construct, isoform or probe ends are uncertain for at least one entry.
Molecular target: MethA p53 (mutant p53) (UniProt P02340)
Assay: EMSA
Conditions: strand separation caused by mut p53, RT, label: 32P

Q: Does “AGTGTCTTTAATTTCTAATATATTTAGAAAACTGC (double strand) [MARI IgH enhancer 3'-flanking]” bind (inhibited by PAb421 and PAb240, 10 mM hepes pH 7.8, 50 mM KCl, 5 mM MgCl2, 1 mM EDTA, poly dI:dC)?
A: binds

Q: Does “TTTTAACAATAATAAATTAAGTTTAAAATATTTGCG (double strand) [MARII IgH enhancer 5'-flanking]” bind (same buffer)?
A: binds
